Some of the results follow.
The sequences below were run against T1, OsSMF1 (Oryza sativa, UniProt Q6ZLB0 1-436) (assay: protein-binding microarray (RPBM); PBS, 2% BSA, 51.3 ng/ul salmon testes DNA, 50 uM zinc acetate, 200 nM TF, 25 C, 1 h; high values mean tight binding). Conditions: protein: recombinant; tags: N-terminal polyhistidine and DsRed monomer fusion (pET32a); chain copies: 2; label: CyDye5-dUTP incorporated in the synthesized complementary strand; 3' TTTTT single-stranded linker to array surface; dsDNA, one strand shown.
T1 sequence: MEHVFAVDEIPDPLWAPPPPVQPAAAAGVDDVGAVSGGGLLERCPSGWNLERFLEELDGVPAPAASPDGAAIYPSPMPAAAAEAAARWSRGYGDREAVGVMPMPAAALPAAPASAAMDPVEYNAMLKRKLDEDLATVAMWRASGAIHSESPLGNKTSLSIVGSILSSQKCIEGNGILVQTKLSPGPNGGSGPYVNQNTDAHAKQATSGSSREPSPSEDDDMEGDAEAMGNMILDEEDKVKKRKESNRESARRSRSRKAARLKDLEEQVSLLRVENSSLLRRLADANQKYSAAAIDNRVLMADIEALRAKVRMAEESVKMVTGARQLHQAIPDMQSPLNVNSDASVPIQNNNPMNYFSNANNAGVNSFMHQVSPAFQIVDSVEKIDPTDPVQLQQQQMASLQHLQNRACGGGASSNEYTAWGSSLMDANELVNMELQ
In short: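 The binding signal is fluorescence intensity per array feature (arbitrary units). Readings came from an Axon 4000B scanner after a washed, 2% BSA-blocked, double-stranded custom Agilent array had been incubated for 1 h at 25 °C with 200 nM protein and 50 µM zinc acetate. The protein was a Ni–NTA-purified transcription factor fused N-terminally to polyhistidine and DsRed, expressed in E. coli BL21-CodonPlus.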

Sequence | binding signal
ATGTTGACTGGACTAGCACGTGTACGCCACGTAGACCAAACGGAGTCACCTAGTGCAG | 4790 fluorescence intensity (a.u.)
GGCGTCGCGGCGCTGGCGGTGTACGCCGCCGGCGGCGCCGCGGAGTCACCTAGTGCAG | 3780 fluorescence intensity (a.u.)
AGGACAATGCAATGTGTACACCGTGGAGATGCCCAACAGTCGGAGTCACCTAGTGCAG | 3780 fluorescence intensity (a.u.)
TCACACATGATCGTATCAATATCCATCGACACGTGCACATCGGAGTCACCTAGTGCAG | 6520 fluorescence intensity (a.u.)
AGGTCGAGGGAGAAGGGGTCGAACACGTTGCTGCGGCGGACGGAGTCACCTAGTGCAG | 4140 fluorescence intensity (a.u.)
CTGCTCCTAGTCACACTTGACAGTTCAGCTTCAGCTCCTCCGGAGTCACCTAGTGCAG | 6360 fluorescence intensity (a.u.)
CTGGATGGTGGTGGTCGAACTATCAGGGGCGTTATGCATACGGAGTCACCTAGTGCAG | 3680 fluorescence intensity (a.u.)
CCCACCACACACCCGGCCCCACATGTCATCCACCCATCCACGGAGTCACCTAGTGCAG | 4500 fluorescence intensity (a.u.)
TCCTGTCGTTTACGTTTACGTGTACTTTCACTGTGCACGTCGGAGTCACCTAGTGCAG | 4160 fluorescence intensity (a.u.)
GAGGGAAATCGATCTGAGAGGGAGGAGGGGAGGAGGGGAGCGGAGTCACCTAGTGCAG | 3900 fluorescence intensity (a.u.)
CAAGTGGTTTTGTGTGGTGGAGTGCGATGGCAGGGACGGGCGGAGTCACCTAGTGCAG | 3480 fluorescence intensity (a.u.)
CGGATCCATCCATCTCCCCAATCCCCTGTAACACCCGTACCGGAGTCACCTAGTGCAG | 3170 fluorescence intensity (a.u.)
GAGATCTGGTTGGTTCGTGTCACTGCCAATGTGGCAAATACGGAGTCACCTAGTGCAG | 7660 fluorescence intensity (a.u.)
ACGTCCCCGCCACGCAAGCGCCCATCCACCCGTCCATCCCCGGAGTCACCTAGTGCAG | 17300 fluorescence intensity (a.u.)
CAAGCAATACCTATTTCCTGCACATGTCATCACCTCTTTTCGGAGTCACCTAGTGCAG | 6300 fluorescence intensity (a.u.)
TCAGATAAAATCAGGGACAATACATAAAGGAAGGAATCTTCGGAGTCACCTAGTGCAG | 29400 fluorescence intensity (a.u.)
TGGATTAGGAATCAACGGCAGAGATGATGCAAGGGAGTTTCGGAGTCACCTAGTGCAG | 3330 fluorescence intensity (a.u.)
CGCTTTATCTTTTCATACGAATGATGTGTCGACGTTATCTCGGAGTCACCTAGTGCAG | 3500 fluorescence intensity (a.u.)
ATTTAAATTATGGCTTTAGTGCCACGCTGTACTGTAGTAGCGGAGTCACCTAGTGCAG | 5480 fluorescence intensity (a.u.)
GTGCGGCTAAACGTTCCACCGCCACAGCTGACACGATCGTCGGAGTCACCTAGTGCAG | 3640 fluorescence intensity (a.u.)
GCACCAGCTAGACGCGGAGTCCGCGTGTCGAGCAGACGAGCGGAGTCACCTAGTGCAG | 3890 fluorescence intensity (a.u.)

Sequence | binding signal
TCGATCGGCTTCACGCACGCCCAGCACTATATAACCAGCTCGGAGTCACCTAGTGCAG | 4310 fluorescence intensity (a.u.)
GGTTTTGGAGGGCGGTTTCGCTGATGTGGCGGTGTTGACTCGGAGTCACCTAGTGCAG | 14200 fluorescence intensity (a.u.)
TGCTTCTTCTCGCTCCGAACAGGGAGGACGGTGACGCGGTCGGAGTCACCTAGTGCAG | 3500 fluorescence intensity (a.u.)
TGCGGATCTAACATGCGGGCCCGACTGTCTGCTGCTTCACCGGAGTCACCTAGTGCAG | 3290 fluorescence intensity (a.u.)
CTACACGCCGCCCGCCAGCTCAGTTCACCGGATCCCCGGGCGGAGTCACCTAGTGCAG | 4200 fluorescence intensity (a.u.)
CAAATTAGCCACGTAAGTGCCACTTCAGCTGAAATGATAGCGGAGTCACCTAGTGCAG | 9580 fluorescence intensity (a.u.)
TAGGTTAATTTTCGTGTCAGATCAAACTCAGCGCTCCGTTCGGAGTCACCTAGTGCAG | 4360 fluorescence intensity (a.u.)
GATCGGATCGGATTAGCCGCGCTATAGCGTCAGGGGATCACGGAGTCACCTAGTGCAG | 3210 fluorescence intensity (a.u.)
CGCACCGTTGCAGCCCGCCCACTCGCTGACTCGCTCCAGCCGGAGTCACCTAGTGCAG | 4160 fluorescence intensity (a.u.)
GGGGAAGGAGAAGAGGAAGGAGAGGGGAGGAGGAGGAGGGCGGAGTCACCTAGTGCAG | 3770 fluorescence intensity (a.u.)
ACTAGGCCAACCTGACACGACGCACAAGACAAAACCTTCGCGGAGTCACCTAGTGCAG | 3620 fluorescence intensity (a.u.)
CCAGCCCCGCGCCGGCCGCCGTCCGTCCGCCCGCGCGCGGCGGAGTCACCTAGTGCAG | 3540 fluorescence intensity (a.u.)
AGGAGACCGATGGGGACATGGGGCGTGGCGGGAGAGGATTCGGAGTCACCTAGTGCAG | 3240 fluorescence intensity (a.u.)
GGGGCGAGGCGTGTGTCAGGCCGCCTGTTGCCACCTAACCCGGAGTCACCTAGTGCAG | 4540 fluorescence intensity (a.u.)
TATTAATTAAAATTAGATCTTCTCTTCTAGGCTTTTAAAACGGAGTCACCTAGTGCAG | 30400 fluorescence intensity (a.u.)
AAGGAAGGAAGGAGGAGGATGCTGACGTGGCGAAGCGCAACGGAGTCACCTAGTGCAG | 20400 fluorescence intensity (a.u.)
TGAGGATGCAAGAGAATCCTAAAAGGTAAGGCAGCATGCACGGAGTCACCTAGTGCAG | 44100 fluorescence intensity (a.u.)
GCAACGTGACTCCACACTCTTTTGTTCGTTACCCATTCCACGGAGTCACCTAGTGCAG | 3530 fluorescence intensity (a.u.)
CCCGCCGACACGTTGGCCTCGCCCATCAGGTACACCACGCCGGAGTCACCTAGTGCAG | 4010 fluorescence intensity (a.u.)
CAGCTCACATTGCCACGTAAGCGCCATGTCAATGCCACATCGGAGTCACCTAGTGCAG | 10200 fluorescence intensity (a.u.)
TATCCATGGTGTTTAACAATATATCACTGGATACACGTGTCGGAGTCACCTAGTGCAG | 9700 fluorescence intensity (a.u.)

Taken from above for reference:
Sequence | binding signal
GGTTTTGGAGGGCGGTTTCGCTGATGTGGCGGTGTTGACTCGGAGTCACCTAGTGCAG | 14200 fluorescence intensity (a.u.)
TGCTTCTTCTCGCTCCGAACAGGGAGGACGGTGACGCGGTCGGAGTCACCTAGTGCAG | 3500 fluorescence intensity (a.u.)
